Results: US6737059B1, “Methods of inhibiting inflammatory processes and alleviating symptoms associated with multiple sclerosis” (Board of Regents of the University Washington, priority 1992, dated 2004)
For at least one compound, name, drawing or mass did not settle the structure.

Tested on: Experimental Allergic Encephalomyelitis (EAE)
Experiment: EAE in macaques: clinical evaluation and survival
Format: in vivo, Macaca fascicularis
Conditions: administration at onset of clinical disease, with dexamethasone
Method: Eighteen male monkeys Macaca fascicularis weighing 2-3 kg were sensitized to myelin basic protein (BP) by the intra dermal injection of 0.1 ml of an emulsion containing 5.0 mg of monkey BP and 0.5 mg of heat-killed M. tuberculosis. Each animal was obtained and housed by the Regional Primate Research Center at the University of Washington, Seattle. The Primate Center conforms to the National Institutes of Health Guide for the Care and Use of laboratory Animals. Ten days after sensitization to BP, each animal was outfitted with a femoral catheter and tether to facilitate blood sampling and the administration of treatments or anesthetics for magnetic resonance imaging (MRI). The animals were maintained on intravenous heparin (18 units/hour) to prevent blood clots from forming in the intra venous lines.
The animals were randomly admitted to specific treatment groups before they were sensitized to BP. […]
Animals that improved and/or stabilized as a result of therapy were sacrificed six weeks after the onset of clinical signs. […] The statistical significance of differences in survival times in each treatment group was determined by two-tailed Student t analysis.
Disease progression was monitored by a combination of clinical evaluation, blood analysis and magnetic resonance imaging. […]

Compound: C[C@@H]1C[C@H]2[C@@H]3CCC4=CC(=O)C=C[C@]4(C)[C@@]3(F)[C@@H](O)C[C@]2(C)[C@@]1(O)C(=O)CO [dexamethasone]
- effect on survival and clinical disease: little apparent effect on the final outcome of the disease
